doi:10.1101/2021.01.31.429078
These are yes or no findings as the source states them, for the method shown. Binding seen in cells or lysates may run through a third protein. For some assays here: Where a sequence is shown, tags or fusion partners need not be part of it.

Amino acid sequences for entries named in this document (tags omitted).
UniProt Q13309: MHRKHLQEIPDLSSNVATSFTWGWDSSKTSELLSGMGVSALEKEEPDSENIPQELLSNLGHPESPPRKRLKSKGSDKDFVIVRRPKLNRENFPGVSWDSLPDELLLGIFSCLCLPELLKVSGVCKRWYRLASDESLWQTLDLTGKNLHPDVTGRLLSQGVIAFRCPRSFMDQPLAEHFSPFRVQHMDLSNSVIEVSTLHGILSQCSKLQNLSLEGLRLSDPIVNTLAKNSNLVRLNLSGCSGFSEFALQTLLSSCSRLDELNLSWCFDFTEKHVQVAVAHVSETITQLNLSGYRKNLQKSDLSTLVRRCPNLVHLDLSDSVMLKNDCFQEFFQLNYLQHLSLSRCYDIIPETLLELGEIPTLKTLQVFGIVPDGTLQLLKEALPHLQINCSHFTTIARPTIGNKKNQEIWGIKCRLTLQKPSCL

Assays:
Flag-tagged FBXO3 = biological target: T1, Flag-tagged FBXO3 (UniProt Q9UK99); test: co-IP
T1 sequence: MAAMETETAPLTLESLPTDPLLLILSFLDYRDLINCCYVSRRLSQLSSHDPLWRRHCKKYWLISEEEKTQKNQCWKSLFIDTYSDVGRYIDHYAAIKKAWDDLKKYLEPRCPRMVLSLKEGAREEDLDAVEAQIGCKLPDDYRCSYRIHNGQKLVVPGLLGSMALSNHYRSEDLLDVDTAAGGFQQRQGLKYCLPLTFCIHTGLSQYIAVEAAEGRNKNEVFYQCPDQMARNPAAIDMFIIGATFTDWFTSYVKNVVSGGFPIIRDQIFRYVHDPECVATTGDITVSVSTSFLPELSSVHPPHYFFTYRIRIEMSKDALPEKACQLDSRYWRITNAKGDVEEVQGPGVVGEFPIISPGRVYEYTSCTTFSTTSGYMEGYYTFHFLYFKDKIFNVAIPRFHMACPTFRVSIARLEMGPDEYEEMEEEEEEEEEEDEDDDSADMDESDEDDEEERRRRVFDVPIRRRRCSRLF

Flag-tagged SKP2 = Flag-tagged SKP2 (UniProt Q13309); test: co-IP

B1: MST2 (endogenous, HEK293T cells) (protein, UniProt Q13188-1 1-491)
chain: MEQPPAPKSKLKKLSEDSLTKQPEEVFDVLEKLGEGSYGSVFKAIHKESGQVVAIKQVPVESDLQEIIKEISIMQQCDSPYVVKYYGSYFKNTDLWIVMEYCGAGSVSDIIRLRNKTLIEDEIATILKSTLKGLEYLHFMRKIHRDIKAGNILLNTEGHAKLADFGVAGQLTDTMAKRNTVIGTPFWMAPEVIQEIGYNCVADIWSLGITSIEMAEGKPPYADIHPMRAIFMIPTNPPPTFRKPELWSDDFTDFVKKCLVKNPEQRATATQLLQHPFIKNAKPVSILRDLITEAMEIKAKRHEEQQRELEEEEENSDEDELDSHTMVKTSVESVGTMRATSTMSEGAQTMIEHNSTMLESDLGTMVINSEDEEEEDGTMKRNATSPQVQRPSFMDYFDKQDFKNKSHENCNQNMHEPFPMSKNVFPDNWKVPQDGDFDFLKNLSLEELQMRLKALDPMMEREIEELRQRYTAKRQPILDAMDAKKRRQQNF
What does the source list for B1?
binding (Flag-tagged FBXO3): no binding; binding (Flag-tagged SKP2): no binding
